Record: PubChem BioAssay AID652259 (Drosophila RNAi Screening Center, 2013)
Test: 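Genome-wide hunt for genes that control Wingless pathway activity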 (primary screen). Cell system: Drosophila clone 8 imaginal disc epithelial cells. Reagents: long dsRNA against Drosophila genes. Conditions: pathway stimulated by co-transfected Wingless expression plasmid. Detection: 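Dual luciferase reads per well after Wingless plasmid stimulation: reporter firefly light and Renilla control light; activity is firefly divided by Renilla, a ratio not deposited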. Scale: firefly reporter light: higher = more Wg reporter light, before normalisation; Renilla control light: higher = more transfected or surviving cells. Hit rule: 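Strong candidates differ from their plate mean by at least two out of four per-plate statistical tests; weak candidates meet just one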. Meaning of the calls: active = candidate regulator (raises or lowers reporter); inactive = not a candidate.
The deposit covers about 22,000 reagents; shown is a random part of those that have a named target and a result. Over the whole deposit, 233 (1.1%) are marked active. 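Light values are raw, unnormalised plate reads; the ratio scores behind the reporter calls were not deposited.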 Unmarked entries are inactive. A plus sign joins genes that one reagent is predicted to hit. No sequences are given here. Not given: the amount of reagent, the time to read-out, the dose of the treatment.

gene,amplicon,"reporter change call, replicate 1","firefly reporter light, replicate 1","firefly reporter light, replicate 2","Renilla control light, replicate 1","Renilla control light, replicate 2"
rho-5 (rhomboid-5),DRSC02847,,3968,12609,1174,5549
RPA3 (Replication protein A3),DRSC19658,,19772,,9802,
KdelR (KDEL receptor),DRSC03353,,8918,,2317,
Hmgcr (HMG Coenzyme A reductase),DRSC16704,,20117,,11986,
PGRP-SB2 (Peptidoglycan recognition protein SB2),DRSC11092,,6624,,3337,
Wdfy2 (WD repeat and FYVE domain containing 2),DRSC02822,,12134,,2128,
Jon25Biii (Jonah 25Biii),DRSC03115,,2516,6160,1053,2358
GatC + PolG2,DRSC03312,,5900,,2713,
CG7457,DRSC10849,,1146,7884,1010,3768
Pits (Protein interacting with Ttk69 and Sin3A),DRSC19385,,32197,,9195,
Pits (Protein interacting with Ttk69 and Sin3A),DRSC19812,,24909,,13048,
CG14855,DRSC14979,,17656,,3431,
Hers + amn,DRSC20306,,18898,,12128,
tilB (touch insensitive larva B),DRSC20634,,15361,,8976,
Mst84Dc (Male-specific RNA 84Dc),DRSC12599,,23459,,4332,
CG9130 + CG9133,DRSC08624,,8584,,3715,
CG9130 + CG9133,DRSC08625,,18489,,6653,
CG9130 + CG9133,DRSC22010,,4.92e5,5.20e5,1.69e5,1.75e5
Pkc53E (Protein C kinase 53E),DRSC05636,,16524,,8756,
Pkc53E (Protein C kinase 53E),DRSC07510,,7878,,3548,
CG15534,DRSC15070,,5357,,2512,
CG13760,DRSC18617,,16408,,11555,
Rh4 (Rhodopsin 4),DRSC11268,,11376,8.47e5,4481,2.95e5
Pvf1 (PDGF- and VEGF-related factor 1),DRSC20024,,2602,9129,1420,3356
CG32365,DRSC10040,,864,6582,844,2761
CG32365,DRSC10041,,1558,5840,154,368
CG32365,DRSC10977,,1121,5593,440,957
RpL27A (Ribosomal protein L27A),DRSC00781,Wg reporter activity raised,5195,14872,582,1730
Cpr49Ag (Cuticular protein 49Ag),DRSC07203,,7393,,3895,
CG4151,DRSC18351,,20214,,8265,
IntS6 (Integrator 6),DRSC18281,,2016,5121,711,1751
RpL19 (Ribosomal protein L19),DRSC04649,,11397,,2394,
CG7968,DRSC01903,,2368,8233,1069,3276
Prp5 (pre-mRNA processing factor 5),DRSC19975,,21053,,9975,
CG3014,DRSC15458,,9938,,2832,
FoxL1 (Forkhead box L1),DRSC08717,,8003,,3194,
CG13793,DRSC02297,,3271,7053,1240,3033
ko (knockout),DRSC11893,,13049,,3610,
CG10183,DRSC14203,,14344,,10176,
CG33301,DRSC02778,,3011,4388,1189,2912
CG11634,DRSC03700,,2025,6746,672,2609
Nrx-1 (Neurexin 1),DRSC16184,,4471,6217,849,1289
Muc96D (Mucin 96D),DRSC13709,,4916,,2436,
Muc96D (Mucin 96D),DRSC21609,,8.08e5,7.76e5,4.03e5,3.29e5
CG15422,DRSC00436,,3082,7514,1115,2656
eIF3g1 (eukaryotic translation initiation factor 3 subunit g1),DRSC18427,,4930,8621,599,1241
esn (espinas),DRSC05039,,19783,,7466,
esn (espinas),DRSC06181,,2629,6186,625,2960
esn (espinas),DRSC07612,,1804,5200,420,1989
